Experimental data taken from doi:10.1101/122853.

B1: NDC1 (endogenous, HEK293) (protein, UniProt Q9BTX1 1-674)
chain: MATAVSRPCAGRSRDILWRVLGWRIVASIVWSVLFLPICTTVFIIFSRIDLFHPIQWLSDSFSDLYSSYVIFYFLLLSVVIIIISIFNVEFYAVVPSIPCSRLALIGKIIHPQQLMHSFIHAAMGMVMAWCAAVITQGQYSFLVVPCTGTNSFGSPAAQTCLNEYHLFFLLTGAFMGYSYSLLYFVNNMNYLPFPIIQQYKFLRFRRSLLLLVKHSCVESLFLVRNFCILYYFLGYIPKAWISTAMNLHIDEQVHRPLDTVSGLLNLSLLYHVWLCGVFLLTTWYVSWILFKIYATEAHVFPVQPPFAEGSDECLPKVLNSNPPPIIKYLALQDLMLLSQYSPSRRQEVFSLSQPGGHPHNWTAISRECLNLLNGMTQKLILYQEAAATNGRVSSSYPVEPKKLNSPEETAFQTPKSSQMPRPSVPPLVKTSLFSSKLSTPDVVSPFGTPFGSSVMNRMAGIFDVNTCYGSPQSPQLIRRGPRLWTSASDQQMTEFSNPSPSTSISAEGKTMRQPSVIYSWIQNKREQIKNFLSKRVLIMYFFSKHPEASIQAVFSDAQMHIWALEGLSHLVAASFTEDRFGVVQTTLPAILNTLLTLQEAVDKYFKLPHASSKPPRISGSLVDTSYKTLRFAFRASLKTAIYRITTTFGEHLNAVQASAEHQKRLQQFLEFKE
B2: AAAS (endogenous, HEK293) (protein, UniProt Q9NRG9 1-546)
chain: MCSLGLFPPPPPRGQVTLYEHNNELVTGSSYESPPPDFRGQWINLPVLQLTKDPLKTPGRLDHGTRTAFIHHREQVWKRCINIWRDVGLFGVLNEIANSEEEVFEWVKTASGWALALCRWASSLHGSLFPHLSLRSEDLIAEFAQVTNWSSCCLRVFAWHPHTNKFAVALLDDSVRVYNASSTIVPSLKHRLQRNVASLAWKPLSASVLAVACQSCILIWTLDPTSLSTRPSSGCAQVLSHPGHTPVTSLAWAPSGGRLLSASPVDAAIRVWDVSTETCVPLPWFRGGGVTNLLWSPDGSKILATTPSAVFRVWEAQMWTCERWPTLSGRCQTGCWSPDGSRLLFTVLGEPLIYSLSFPERCGEGKGCVGGAKSATIVADLSETTIQTPDGEERLGGEAHSMVWDPSGERLAVLMKGKPRVQDGKPVILLFRTRNSPVFELLPCGIIQGEPGAQPQLITFHPSFNKGALLSVGWSTGRIAHIPLYFVNAQFPRFSPVLGRAQEPPAGGGGSIHDLPLFTETSPTSAPWDPLPGPPPVLPHSPHSHL
B3: NUP35/53 (endogenous, HEK293) (protein, UniProt Q8NFH5 1-326)
chain: MAAFAVEPQGPALGSEPMMLGSPTSPKPGVNAQFLPGFLMGDLPAPVTPQPRSISGPSVGVMEMRSPLLAGGSPPQPVVPAHKDKSGAPPVRSIYDDISSPGLGSTPLTSRRQPNISVMQSPLVGVTSTPGTGQSMFSPASIGQPRKTTLSPAQLDPFYTQGDSLTSEDHLDDSWVTVFGFPQASASYILLQFAQYGNILKHVMSNTGNWMHIRYQSKLQARKALSKDGRIFGESIMIGVKPCIDKSVMESSDRCALSSPSLAFTPPIKTLGTPTQPGSTPRISTMRPLATAYKASTSDYQVISDRQTPKKDESLVSKAMEYMFGW

These binders were tested against T1, FLAG-tagged TMEM18 (UniProt Q3TUD9) (assay: affinity purification with mass spectrometry).
T1 sequence: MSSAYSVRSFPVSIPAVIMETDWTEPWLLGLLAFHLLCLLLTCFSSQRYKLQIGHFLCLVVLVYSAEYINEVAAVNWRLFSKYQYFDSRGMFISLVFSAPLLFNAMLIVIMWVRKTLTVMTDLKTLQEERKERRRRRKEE
B1 was tested, and the binding was “binds”. With B2 the binding was “binds”. For B3, the binding was “binds”.

Results are given in words; binding and its absence hold for the method and conditions named. In cells and extracts the contact can be indirect. Here binding means that the protein was enriched with, or labelled near, the bait; the list need not be complete. Where a sequence is shown, tags or fusion partners need not be part of it.
